Results from publication doi:10.1101/2025.09.16.676506.
No constants are given. Whether binding was seen depends on the method and setting. In cells and extracts the contact can be indirect. Binding can be weak; no strength is given.

Sequences of proteins named here, by UniProt entry; tags and fusion partners are left off. A change or cut given only in a name is not applied to a line headed by its entry.
UniProt P26648: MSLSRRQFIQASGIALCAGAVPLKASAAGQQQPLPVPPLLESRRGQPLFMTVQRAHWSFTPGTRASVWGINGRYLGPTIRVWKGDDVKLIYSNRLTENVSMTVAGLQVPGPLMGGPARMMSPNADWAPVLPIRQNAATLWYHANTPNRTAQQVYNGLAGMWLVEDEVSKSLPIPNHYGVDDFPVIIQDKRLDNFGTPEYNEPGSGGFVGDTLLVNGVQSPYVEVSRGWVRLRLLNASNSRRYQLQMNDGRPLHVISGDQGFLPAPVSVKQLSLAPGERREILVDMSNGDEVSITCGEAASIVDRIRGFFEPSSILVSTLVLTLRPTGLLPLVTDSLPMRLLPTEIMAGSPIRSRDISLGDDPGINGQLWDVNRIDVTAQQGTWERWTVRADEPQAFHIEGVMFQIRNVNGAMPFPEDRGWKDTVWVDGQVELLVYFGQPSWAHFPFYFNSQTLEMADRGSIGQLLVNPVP

Target: SufI–8×His (E. coli) (UniProt P26648)
Experiment: pull-down

B1: TatA (protein, UniProt P69428 1-89)
chain: MGGISIWQLLIIAVIVVLLFGTKKLGSIGSDLGASIKGFKKAMSDDEPKQDKTSQDADFTAKTIADKQADTNQEQAKTEDAKRHDKEQV
  binding: binds
